Measurements from patent US20130052176.
For some of these results: Negatives hold for the conditions tested. For some of these results: The comparison behind a weaker result is the experiment's own reference, which may not be listed here. For some of these results: Protein sequences can lack the tags named with them.

The chains behind the UniProt entries cited, without tags or fusion partners. Residues count along the entry.
UniProt P01138, 122-241: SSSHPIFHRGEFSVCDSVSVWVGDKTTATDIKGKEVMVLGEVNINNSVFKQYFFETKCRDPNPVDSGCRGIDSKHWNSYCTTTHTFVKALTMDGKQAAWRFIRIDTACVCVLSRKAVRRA
UniProt P23560, 129-247: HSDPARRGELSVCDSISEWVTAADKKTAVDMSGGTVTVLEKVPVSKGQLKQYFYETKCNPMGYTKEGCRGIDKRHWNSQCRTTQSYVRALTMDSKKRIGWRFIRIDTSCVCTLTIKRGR
UniProt P34130, 81-210: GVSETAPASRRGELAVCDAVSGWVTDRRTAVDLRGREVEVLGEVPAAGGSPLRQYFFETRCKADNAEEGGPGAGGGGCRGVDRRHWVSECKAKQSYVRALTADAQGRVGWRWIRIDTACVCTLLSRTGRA

How the values were obtained:
NT-3 (human) = molecular target: T1, NT-3 (human) (UniProt P20783); assay: activity in cells; conditions: purified recombinant protein
T1 sequence (looked up, limits assumed): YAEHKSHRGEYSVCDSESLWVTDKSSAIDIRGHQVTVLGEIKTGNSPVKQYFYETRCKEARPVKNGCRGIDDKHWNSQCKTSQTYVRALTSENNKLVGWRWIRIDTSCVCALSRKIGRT

[1] = molecular target: NGF (nerve growth factor) (human) (UniProt P01138); assay: activity in cells; conditions: T is 5-BrdU; neurite outgrowth; TF-1 IC50 also >200 nM; purified recombinant protein; protein details: human NGF; single-stranded DNA
[2] = molecular target: NGF (nerve growth factor) (human) (UniProt P01138); assay: SPR; conditions: 2'-F at all pyrimidines; 2'-OMe at g19; g19 2'-OMe eliminates binding; purified recombinant protein; variant of aptamer ID 26
BDNF (human) = BDNF (human) (UniProt P23560); assay: SPR; conditions: 2'-F pyrimidines; 2'-OMe purines except 2'-OH at 3,5,19-22,24,26; 5' idT and 3' idT; purified recombinant protein; protein details: R&D systems; variant of aptamer ID 26
NT-4/5 (human) = NT-4/5 (human) (UniProt P34130); assay: SPR; conditions: 2'-F pyrimidines; 2'-OMe purines except 2'-OH at 3,5,19-22,24,26; 5' idT and 3' idT; purified recombinant protein; protein details: R&D systems; variant of aptamer ID 26

Sequence: GGGAGACUCGCCAGAGUUGAAAGAAACCCAAAUAAGUGUGCGCAC [aptamer ID 26(63)]
- IC50 (NT-3 (human); 5' and 3' idT, 2'-OMe purines except ribo g3,g19,a20,a26, 2'-F c28,c41,c43, dC27,dC29, other pyrimidines 2'-OMe, TF-1 TrkC/p75 proliferation, protein details: R&D Systems, variant of aptamer ID 26(19)): > 1000 nM

Sequence: GGGAGACUCGCCAGAGUUGAAAGAAACCCAAAUAAGUGUGCGCAC [aptamer ID 26(64)]
- IC50 (NT-3 (human); 2'-F pyrimidines except 2'-OMe at 7,8,9,11,12,17,18,33,37,39,45, 2'-OMe purines except 2'-OH at 3,19,20,26, 5' PEG80TS4 (ssH linker), 3' idT, TF-1 growth (TrkC + p75), NT-3 0.074 nM, protein details: R&D systems, variant of aptamer ID 26(52)): > 1000 nM

Sequence: ATATATATGGGAGGACGATGCGGGCACACTTAAATCCACTTCACCTTACAATTCCTTTATCTGCAGACGACGAGCGGGAAAAAAAA [WO02/077262 Seq ID No. 38]
- IC50 [1]: > 200 nM

Sequence: GGGAGACUCGCCAGAGUUGAAAGAAACCCAAAUAAGUGUGCGCAC [aptamer ID 26(65)]
- IC50 (NT-3 (human); 5' PEG80TS4 via ssH linker, 3' idT, 2'-OMe purines except ribo g3,g19,a20,a26, 2'-F c28,c41,c43, dC27,dC29, other pyrimidines 2'-OMe, TF-1 TrkC/p75 proliferation, protein details: R&D Systems, variant of aptamer ID 26(19)): > 1000 nM

Sequence: GGGAGACUCGCCAGAGUUGAAAGAAACCCAAAUAAGUGUGCGCAC [aptamer ID 26(52)]
- IC50 (NT-3 (human); 2'-F pyrimidines except 2'-OMe at 7,8,9,11,12,17,18,33,37,39,45, 2'-OMe purines except 2'-OH at 3,19,20,26, 5' idT and 3' idT, TF-1 growth (TrkC + p75), NT-3 0.074 nM, protein details: R&D systems, variant of aptamer ID 26(49)): > 1000 nM

Sequence: GGGAGACUCGCCAGAGUUGAAAGAAACCCAAAUAAGUGUGCGCAC [aptamer ID 26(-)]
- binding result [2]: no binding

Sequence: GGGAGACUCGCCAGAGUUGAAAGAAACCCAAAUAAGUGUGCGCAC [aptamer ID 26(2)]
- binding result (BDNF (human)): binds more weakly
- binding result (NT-4/5 (human)): binds more weakly
- IC50 (NT-3 (human); 5' and 3' idT, 2'-F all pyrimidines, 2'-OMe purines except ribo g3,g5,g19,a20,a21,a22,a24,a26, TF-1 TrkC/p75 proliferation, protein details: R&D Systems, variant of aptamer ID 26): > 1000 nM

Sequence: ATATATATGGGAGGACGATGCGGGCCCCAAACACTTGTTCCTATCTTTCAACCCCCCTTGATCCAGACGACGAGCGGGAAAAAAAA [WO02/077262 Seq ID No. 42]
- IC50 [1]: > 200 nM
